Test results: article PMC7980221 (Molecular Cell, 2021)

Amino acid sequences for entries named in this document (tags omitted). A change or cut given only in a name is not applied to a line headed by its entry.
UniProt A0L5S6: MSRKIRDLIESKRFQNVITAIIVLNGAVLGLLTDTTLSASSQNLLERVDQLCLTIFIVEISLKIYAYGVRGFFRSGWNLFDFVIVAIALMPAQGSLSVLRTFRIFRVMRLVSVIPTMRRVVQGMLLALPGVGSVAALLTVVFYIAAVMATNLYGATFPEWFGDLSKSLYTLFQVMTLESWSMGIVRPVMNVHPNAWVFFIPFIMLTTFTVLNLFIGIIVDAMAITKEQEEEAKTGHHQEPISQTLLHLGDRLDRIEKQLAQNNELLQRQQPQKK

Molecular target: NavMs (Magnetococcus marinus, UniProt A0L5S6)
Test: cell-based

CC/C(=C(\c1ccccc1)c1ccc(OCCN(C)C)cc1)c1ccccc1 [Tamoxifen]
IC50: 830 nM
